Tags and fusion partners may be left off the protein sequences shown. For at least one entry, the source does not settle the construct or the ends of the probe.
Molecular target: T1, ATF1 (Homo sapiens) (UniProt P18846)
T1 sequence (looked up, limits assumed): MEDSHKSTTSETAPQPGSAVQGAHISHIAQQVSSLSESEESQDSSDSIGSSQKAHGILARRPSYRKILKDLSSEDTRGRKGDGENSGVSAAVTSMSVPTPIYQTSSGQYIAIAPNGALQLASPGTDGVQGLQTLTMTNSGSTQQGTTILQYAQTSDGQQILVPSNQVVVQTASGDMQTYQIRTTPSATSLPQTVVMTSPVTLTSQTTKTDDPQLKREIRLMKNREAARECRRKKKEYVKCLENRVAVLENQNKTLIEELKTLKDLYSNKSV
Experiment: binding assay
Settings: MITOMI-type chip (QPID); rabbit reticulocyte lysate, 1 h; wash 50 mM HEPES; temperature not stated; DNA spotted at 0.0156-2 uM; protein translated in vitro; protein details: N-cMyc, C-His6 (kept); label: Cy5 on the primer strand

Row | Sequence | Kd [nM]
1 | CGCGTCGCGATAAGATGGCGTCACGGCGCGCCTCGCTGCTCCGGCGGTATGAC (double strand) [30.ATF3_CRE_hs_16] | 174
2 | CGCTGTGGCCAGGAGCTGCGTCACATGGACTGAGGAATCTCCGGCGGTATGAC (double strand) [46.ATF3_CRE_hs_32] | 438
3 | CGCCCCGGGCGTCGCCTACGTCATAACACTGCGCGGCCCTCCGGCGGTATGAC (double strand) [109.ATF1_ATF3_CRE_hs_27] | 115
4 | CGCCGATTTCCGGGAACCCGTCAGGAAGGACATAAACACTCCGGCGGTATGAC (double strand) [23.ATF3_CRE_hs_9] | 609
5 | CGCGGCTGCGGATGGAGGGCGGGCCGGGGACCTTACCACTCCGGCGGTATGAC (double strand) [125.Unbound_non_CRE_4] | > 2000
6 | CGCTTGGGCATATCTTTCTGACGTCATGAGAGTGCGATACCCTCCGGCGGTATGAC (double strand) [13.Unbound_CRE_4] | 83.4
7 | CGCCGCTGCCTGTGGTAACGTCAGTGGTTGCTAGGCAGCTCCGGCGGTATGAC (double strand) [63.ATF1_CRE_hs_15] | > 2000
8 | CGCGGTGGCGCGGCGCGTTGACGTCATGGAGGCGGGGTGCTCTCCGGCGGTATGAC (double strand) [1.ATF3_CRE_1] | 66.1
9 | CGCCGAGAGGCTCACCCCTGACGTCACCCAGTCCCCAGGGCCTCCGGCGGTATGAC (double strand) [14.Unbound_CRE_5] | 110
10 | CGCCAAGGAGCGGGCTCTCGTCACTTCCGGCGCCCGCCCTCCGGCGGTATGAC (double strand) [107.ATF1_ATF3_CRE_hs_25] | 646
11 | CGCCGACCGAGACAGGTATGACGTCACTGGAGGTCGCCATTCTCCGGCGGTATGAC (double strand) [6.ATF1_CRE_3] | 51.6
12 | CGCAATCTTATTGACATGCGTCAACGCGAGCTTGCGCTCTCCGGCGGTATGAC (double strand) [80.ATF1_CRE_hs_32] | 146
13 | CGCGGGCGGTTGGAGATGCGTCACGGGGCGGGTCCCGCCTCCGGCGGTATGAC (double strand) [20.ATF3_CRE_hs_6] | 1340
14 | CGCCCCAGCTACTGGCGACGTCACCGCACCGTAGGCTGCTCCGGCGGTATGAC (double strand) [73.ATF1_CRE_hs_25] | 142
15 | CGCGCCGTCCTGGTTTTCCGTCACCCTGGTTCTGTAGTCTCCGGCGGTATGAC (double strand) [43.ATF3_CRE_hs_29] | > 2000
16 | CGCCCCCGATACGGCCGACGTCATTACCCTGCGACCGCCTCCGGCGGTATGAC (double strand) [111.ATF1_ATF3_CRE_hs_29] | 255
17 | CGCAGCAACGATCACCATCGTCACTTCTCCCTCTCTACCTCCGGCGGTATGAC (double strand) [54.ATF1_CRE_hs_6] | 244
18 | CGCTCACAGCACCTCGTGCGTCACTTGGCGGCGCCGGACTCCGGCGGTATGAC (double strand) [84.ATF1_ATF3_CRE_hs_2] | > 2000
19 | CGCACGACCAGCGTGCTGCGTCACGGCGGTGCGCCGGACTCCGGCGGTATGAC (double strand) [112.ATF1_ATF3_CRE_hs_30] | 148
20 | CGCGCGCTCGGAGTGCTGCGTCACTCGCCACCAGGGACCTCCGGCGGTATGAC (double strand) [55.ATF1_CRE_hs_7] | 122
21 | CGCCTGCAGCGTTCCTGGCGTCAGCCCCTATCCTCCAGCTCCGGCGGTATGAC (double strand) [28.ATF3_CRE_hs_14] | > 2000
22 | CGCCTTACGTCTGCTGTGCGTCATCAGTCCGAGCCAAGCTCCGGCGGTATGAC (double strand) [71.ATF1_CRE_hs_23] | 192
23 | CGCCGGGCTCTGGCCGCACGTCATTCCCGGCGCGACGCCTCCGGCGGTATGAC (double strand) [44.ATF3_CRE_hs_30] | 327
24 | CGCTTCCGCGTCGCTACGTGACGTCAGTGCGAGCGACCCCGCTCCGGCGGTATGAC (double strand) [8.ATF1_ATF3_CRE_2] | 111
25 | CGCCGAGTGGCGCCGCCGTGACGTCACATGGGTGCGACGCGCTCCGGCGGTATGAC (double strand) [9.ATF1_ATF3_CRE_3] | 32.6

Source: paper PMC4824076, “Integrated microfluidic approach for quantitative high-throughput measurements of transcription factor binding affinities”
